Results are given in words; binding and its absence hold for the method and conditions named. Some results given as binding are weak or reduced against the parent protein; the word gives no strength.

Experiment [1] addresses T1, human prolactin receptor (PRLR) on cells (T47D; HEK293 or Ba/F3 stably transfected with human PRLR) (human) (UniProt P16471).
T1 sequence (looked up): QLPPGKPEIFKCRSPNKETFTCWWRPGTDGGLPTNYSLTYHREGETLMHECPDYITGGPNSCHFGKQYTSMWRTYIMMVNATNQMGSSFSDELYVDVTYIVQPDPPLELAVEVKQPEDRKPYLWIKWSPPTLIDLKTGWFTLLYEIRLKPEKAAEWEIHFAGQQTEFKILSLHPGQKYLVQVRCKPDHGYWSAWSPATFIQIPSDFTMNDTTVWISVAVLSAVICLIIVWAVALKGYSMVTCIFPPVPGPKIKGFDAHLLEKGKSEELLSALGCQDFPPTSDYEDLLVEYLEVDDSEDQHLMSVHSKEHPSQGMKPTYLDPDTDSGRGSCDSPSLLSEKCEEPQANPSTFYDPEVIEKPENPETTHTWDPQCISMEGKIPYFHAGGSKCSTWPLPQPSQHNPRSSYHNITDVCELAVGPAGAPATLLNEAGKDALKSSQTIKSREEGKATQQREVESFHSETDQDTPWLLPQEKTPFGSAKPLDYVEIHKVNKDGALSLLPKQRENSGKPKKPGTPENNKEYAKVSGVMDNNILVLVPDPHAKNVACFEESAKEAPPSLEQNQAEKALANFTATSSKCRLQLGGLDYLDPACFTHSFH
As to the kind of experiment: flow cytometry on HEK293 cells stably expressing human PRLR, fixed concentration.

The target of experiment [2] is T1, human prolactin receptor (PRLR) on cells (T47D; HEK293 or Ba/F3 stably transfected with human PRLR) (human). As to the kind of experiment: flow cytometry (FACS) on HEK293 cells stably expressing human PRLR, one fixed concentration of 0.37 µg/ml IgG, PE-conjugated goat anti-human IgG, compared with parental HEK293 without PRLR. A general note: In flow cytometry, cells or beads pass a laser one at a time.

For experiment [3] the target is unchanged. Description: statement in Example 7 (T47D cells).
The target in experiment [4] is T2, rat prolactin receptor (PRLR) on rat lymphoma cell line Nb2 (rat) (UniProt P05710).
T2 sequence (looked up): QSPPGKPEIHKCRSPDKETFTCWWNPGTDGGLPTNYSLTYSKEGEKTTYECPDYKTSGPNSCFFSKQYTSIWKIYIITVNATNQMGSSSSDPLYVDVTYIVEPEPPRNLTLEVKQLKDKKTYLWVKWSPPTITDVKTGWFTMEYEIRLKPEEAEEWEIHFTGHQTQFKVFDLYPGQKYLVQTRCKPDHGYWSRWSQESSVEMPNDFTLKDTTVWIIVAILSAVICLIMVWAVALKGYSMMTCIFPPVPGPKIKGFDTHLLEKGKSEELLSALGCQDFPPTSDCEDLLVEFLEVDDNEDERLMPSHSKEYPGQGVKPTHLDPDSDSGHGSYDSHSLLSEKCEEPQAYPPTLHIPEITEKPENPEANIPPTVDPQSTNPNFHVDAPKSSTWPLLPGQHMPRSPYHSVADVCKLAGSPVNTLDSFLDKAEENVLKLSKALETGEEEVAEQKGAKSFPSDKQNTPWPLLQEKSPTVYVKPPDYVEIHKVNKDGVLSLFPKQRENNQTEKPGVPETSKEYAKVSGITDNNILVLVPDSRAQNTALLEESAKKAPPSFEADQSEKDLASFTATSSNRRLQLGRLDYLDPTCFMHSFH
Description: statement in Example 6 (Nb2-11 cells).

B1: HE06.642 (Novartis, WO2008/22295; Human Engineered antibody) (antibody, V domains shown)
VH: EVQLVESGGGLVQPGGSLRLSCAVSGFTFSSYGMSWVRQAPGKGLEWVATVSSGGTYTYYPDSVKGRFTISRDNSKNTLYLQMNSLRAEDTAVYYCARHRGNYYATYYYAMDYWGQGTLVTVSS
VL: DIVLTQSPDSLAVSLGERATINCKASKSVSTSGYTYMHWYQQKPGQPPKLLIYLASNRESGVPDRFSGSGSGTDFTLTISPVQAEDVATYYCQHSGELPPSFGQGTKLEIKR
As to B1, the binding entry in experiment [1] and in experiment [2] was “binds” each time.

B2: XHA06.642 (Novartis, WO2008/22295) (antibody, V domains shown)
VH: EVQLVESGGDLVKPGGSLKLSCAVSGFTFSSYGMSWVRQTPDKRLEWVATVSSGGTYTYYPDSVKGRFTISRDNAKNTLYLQMSSLKSEDSAMYYCARHRGNYYATYYYAMDYWGQGTSVTVSS
VL: DIVLTQSPASLAVSLGQGATISCRASKSVSTSGYTYMHWYQQKPGQPPKLLIYLASNLESGVPARFSGSGSGTDFTLNIHPVEEEDAATYYCQHSGELPPSFGGGTKLEIKR
With B2, the binding result in experiment [3] and in experiment [4] was “binds” each time.

The record behind these values is patent US20120321632A1.
